The record followed here is publication PMC9778704.

Chains of the proteins cited; added tags and fusions are not shown.
UniProt Q14764: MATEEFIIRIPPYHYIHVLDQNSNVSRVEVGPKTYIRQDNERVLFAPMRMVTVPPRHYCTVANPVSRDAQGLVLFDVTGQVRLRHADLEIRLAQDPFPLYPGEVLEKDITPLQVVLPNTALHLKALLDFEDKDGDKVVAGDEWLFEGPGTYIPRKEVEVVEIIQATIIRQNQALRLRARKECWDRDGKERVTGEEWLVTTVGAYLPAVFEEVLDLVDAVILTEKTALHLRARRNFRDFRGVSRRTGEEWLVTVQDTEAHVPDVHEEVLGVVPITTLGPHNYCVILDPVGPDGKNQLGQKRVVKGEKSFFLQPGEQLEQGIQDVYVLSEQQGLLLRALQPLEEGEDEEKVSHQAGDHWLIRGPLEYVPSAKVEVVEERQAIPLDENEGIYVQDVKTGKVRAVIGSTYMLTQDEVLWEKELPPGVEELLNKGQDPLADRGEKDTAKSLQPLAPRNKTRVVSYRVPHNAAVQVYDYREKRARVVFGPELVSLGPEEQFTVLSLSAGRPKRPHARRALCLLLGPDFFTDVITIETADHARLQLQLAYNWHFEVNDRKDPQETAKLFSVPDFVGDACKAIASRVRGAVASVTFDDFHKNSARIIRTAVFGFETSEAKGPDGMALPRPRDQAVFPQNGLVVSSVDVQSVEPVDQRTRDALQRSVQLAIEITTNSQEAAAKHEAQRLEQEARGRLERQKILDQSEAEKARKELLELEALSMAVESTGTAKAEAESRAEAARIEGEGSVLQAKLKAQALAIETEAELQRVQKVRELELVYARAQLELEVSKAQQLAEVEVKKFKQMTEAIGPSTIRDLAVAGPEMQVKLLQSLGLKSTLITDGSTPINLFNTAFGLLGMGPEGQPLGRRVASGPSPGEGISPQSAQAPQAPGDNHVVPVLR

Results are given in words; binding and its absence hold for the method and conditions named. Binding seen in cells or lysates may run through a third protein. Some binding calls cover weakened binding; strength is not graded here. Tags and fused reporters may be left off the sequences shown.

In this assay the target is MVP-H6 (human major vault protein with a C-terminal histidine tag) (human) (UniProt Q14764). The experiment in a line: pull-down; soluble fractions of E. coli lysates with MVP-H6 and with GFP-INT mixed 60 min on ice; MVP-H6 captured by its His tag on TALON cobalt IMAC resin, washed and eluted with imidazole in PBS; fractions read by SDS-PAGE and Western blot (anti-His, anti-GFP); control: GFP-INT with PBS only. (In general: In western blotting, separated proteins are transferred to a membrane and probed.)

B1: GFP-INT (eGFP fused to the INT domain of poly-(ADP-ribose) polymerase 4) (domain or fragment, UniProt Q9UKK3 1562-1724)
chain: VCIQHWQDAVPWTELLSLQTEDGFWKLTPELGLILNLNTNGLHSFLKQKGIQSLGVKGRECLLDLIATMLVLQFIRTRLEKEGIVFKSLMKMDDASISRNIPWAFEAIKQASEWVRRTEGQYPSICPRLELGNDWDSATKQLLGLQPISTVSPLHRVLHYSQG
For the molecule B1, the binding entry is “binds”.
